Measured data: PubChem BioAssay AID504808 (Drosophila RNAi Screening Center, 2011)
The deposit covers about 21,000 reagents; shown is a random part of those with a known target gene and a result. In the full data, 18 (0.084%) are marked active. 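Raw counts without plate normalisation, one of two replicates; the ratio scores behind the calls were not deposited.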 Not stated in the record: the amount of reagent, the time to read-out.

- Purpose: 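Fly genes required to hold E2F transcription in check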 (primary screen)
- Cell system: Drosophila S2 cells
- Knock-down reagent: long dsRNA against Drosophila genes
- Measurement: 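Firefly luciferase driven by E2F sites, normalised to Renilla luciferase on the same minimal promoter, measured by plate reader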
- Reading the numbers: E2F firefly: higher = more E2F reporter activity; Renilla normaliser: higher = more normaliser reporter signal
- Active means: 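Called active if the normalised E2F reporter went up by over 50%; the cutoff is arbitrary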

no.	gene knocked down	amplicon	E2F firefly, rep 1	Renilla normaliser, rep 1	outcome
1	atilla	DRSC02971	1.04e5	4822	inactive
2	CG42404	DRSC15558	1.35e5	5150	inactive
3	Mgat4b	DRSC10256	1.42e5	6557	inactive
4	mip130	DRSC18575	90408	5996	inactive
5	dock	DRSC00812	82744	3694	inactive
6	Cyp6t1	DRSC20564	1.53e5	6759	inactive
7	CG15517	DRSC15056	1.22e5	6791	inactive
8	CG15005	DRSC08459	93490	4240	inactive
9	Fum1	DRSC18344	7870	764	inactive
10	CG32645	DRSC19683	7161	382	inactive
11	CG32645	DRSC19889	1.44e5	6681	inactive
12	CG34011	DRSC00888	1.24e5	5157	inactive
13	RIOK1	DRSC09853	69845	3176	inactive
14	Apoltp	DRSC02508	84526	4006	inactive
15	CG2260	DRSC18223	7070	896	inactive
16	ACXD	DRSC07843	97662	3700	inactive
17	Npc2e	DRSC15522	1.36e5	5653	inactive
18	Plekhm1	DRSC04527	1.13e5	4504	inactive
19	CalpB	DRSC11109	78396	3423	inactive
20	CG9394	DRSC04550	1.01e5	4003	inactive
21	gcl	DRSC07623	2993	184	inactive
22	CG13601	DRSC14604	70627	3893	inactive
23	SdhCL	DRSC16078	1.41e5	6170	inactive
24	Pi3K92E	DRSC16788	64033	3084	inactive
25	CG17687	DRSC10279	1.38e5	7457	inactive
26	Atf6	DRSC04743	1.33e5	6310	inactive
27	Atf6	DRSC04889	1.23e5	4602	inactive
28	Osi10b	DRSC12279	1.33e5	5173	inactive
29	nAChRalpha2	DRSC17009	69934	3539	inactive
30	CG18368	DRSC06731	1.14e5	4454	inactive
31	CG3558	DRSC00615	76608	4095	inactive
32	Mgat1	DRSC07463	99121	4251	inactive
33	CG13559	DRSC04197	99914	3832	inactive
34	Seipin	DRSC18654	1.24e5	5510	inactive
35	Vha36-1	DRSC07098	66756	3339	inactive
36	CG42449	DRSC18084	93255	6168	inactive
37	brat	DRSC03497	60345	3368	inactive
38	CG13871	DRSC06430	1.39e5	4469	inactive
39	MBD-R2	DRSC14180	2.03e5	9055	inactive
40	Elp1	DRSC14250	71028	3903	inactive
41	red	DRSC14477	54641	3710	inactive
42	Smug	DRSC15762	1.16e5	6349	inactive
43	cos	DRSC07598	91479	3347	inactive
44	Sec61gamma	DRSC19570	1.36e5	6392	inactive
45	Pu	DRSC04645	65325	3484	inactive
46	CG7457	DRSC10849	1.00e5	3762	inactive
47	PDCD-5	DRSC09955	1.69e5	9154	inactive
48	CG9135	DRSC03144	82234	3759	inactive
49	CG43999	DRSC14605	1.18e5	6103	inactive
50	Lrp4	DRSC20118	8035	796	inactive
51	P32	DRSC06988	74653	3598	inactive
52	CG34169	DRSC01579	1.45e5	6338	inactive
53	CG9686	DRSC18439	1.01e5	5462	inactive
54	CG14237	DRSC14731	96274	6039	inactive
55	CG32021 (retired record)	DRSC17206	66151	3719	inactive
56	sala	DRSC03605	1.53e5	5017	inactive
57	CG32830 (retired record)	DRSC01162	85419	4069	inactive
58	TfIIA-L	DRSC16882	1375	880	inactive
59	Polr2A	DRSC20280	4724	672	inactive
60	MED31	DRSC12142	72318	3422	inactive
61	Df31	DRSC03738	74466	3624	inactive
62	cta	DRSC03769	75417	3833	inactive
63	Tsp39D	DRSC03099	1.03e5	4065	inactive
64	CG8945	DRSC20129	1.58e5	7301	inactive
65	CG8945	DRSC20130	1.62e5	7405	inactive
66	modSP	DRSC16726	1.22e5	6911	inactive
67	modSP	DRSC16857	1.16e5	5651	inactive
68	Tsp42Eq	DRSC06180	1.56e5	5166	inactive
69	RpL38	DRSC07818	68358	5389	inactive
70	ND-B17	DRSC01981	99237	4854	inactive
71	NdufV3	DRSC19423	74412	4432	inactive
72	Eaat2	DRSC00032	1.42e5	6147	inactive
73	Eaat2	DRSC00749	85917	4090	inactive
74	DIP-iota	DRSC02140	1.49e5	5370	inactive
75	CG32202	DRSC09989	1.52e5	8243	inactive
76	idc	DRSC15680	62059	3981	inactive
77	CG5731	DRSC02883	1.52e5	4940	inactive
78	Nep1	DRSC18388	7514	648	inactive
79	Nep1	DRSC18389	63095	4162	inactive
80	Mst87F	DRSC16747	1.11e5	5432	inactive
81	CG4860	DRSC15664	73863	3764	inactive
82	Prosbeta1	DRSC07159	52874	3272	inactive
83	Art3	DRSC16065	74127	3626	inactive
84	Itpr	DRSC12354	1.37e5	6221	inactive
